# From PubChem BioAssay AID2685 (National Center for Advancing Translational Sciences (NCATS), 2010)
# Some of the results follow. The main result of the screen is listed elsewhere. These columns were measured beside it and carry no call. Most of these compounds were active or inconclusive in the main read-out, so they are no random draw. The note in brackets gives the kind of curve behind each potency; many fits are weak.
# Assay: qHTS Assay for Lipid Storage Modulators in Drosophila S3 Cells;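 as to cell number change: cells counted by Cell Tracker Red CMTPX staining in the red channel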
# Conditions: BODIPY lipid droplet fluorescence, 18-24 h; for cell number change: measured here: cell count max response, cells fed with added oleic acid
# Method in brief: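 Drosophila S3 cells loaded with oleic acid (400 uM, as added) and compounds at several concentrations; lipid droplets imaged by 488-nm laser-scanning cytometry, 500–530 nm intensity and object ratio to cell channel. Percent activity normalized to 20 uM Triacsin C.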
# [1] = measured here: lipid fluorescence (Fed channel) AC50, cells fed with added oleic acid
# [2] = measured here: cell number channel AC50, cells fed with added oleic acid
SMILES,cell number change [%],AC50 [1],AC50 [2]
C=CCN(c1ccc(C(=O)Nc2ccc3c(c2)n(C)c(=O)n3C)cc1)S(C)(=O)=O,-14.4,"29.1 µM [falling, single point]",–
CCNC(=O)Nc1ccccc1C(=O)OC,-4.23,"0.517 µM [falling, partial curve, poor fit]",–
CCOC(=O)N1CCN(CCC(=O)Nc2cccc(C)c2)CC1,2.47,"29.1 µM [rising, single point]",–
CC(=O)Nc1ccc(S(=O)(=O)NC(CC(=O)N(C)Cc2ccccc2)C(C)C)cc1 (stereo not drawn),-24.7,"18.4 µM [falling, single point]",–
Cc1cc(NC(=O)CCC(=O)N(c2ccccc2)C(C(=O)NC2CCCC2)c2ccccc2C)no1 (stereo not drawn),2.63,–,–
CCc1cc(=O)oc2c(C)c(O)c(CN(C)C)cc12,1.06,"0.517 µM [falling, full curve, poor fit]",–
Cc1ccc2nc3c(cc(C(=O)NC4CCCCC4)c(=N)n3C3CCCCC3)c(=O)n2c1,1.8,"0.58 µM [falling, single point]",–
Cc1ccc(C)c(S(=O)(=O)N2CCC(c3nc4c(nnn4Cc4ccc(F)cc4)c(=O)[nH]3)CC2)c1,-26.2,"29.1 µM [falling, single point]",–
CN(C)S(=O)(=O)c1cccc2nsnc12,-40.4,"0.82 µM [falling, full curve]","0.731 µM [falling, full curve]"
CC(C)CCOP(=O)(c1ccc(N(C)C)cc1)C(O)c1ccc(C(C)C)cc1 (stereo not drawn),-52.6,"10.3 µM [falling, partial curve]","18.4 µM [falling, partial curve]"
O=C(NC1CCCC1)c1ccc(COc2ccccc2Br)o1,3.25,"6.51 µM [rising, single point]",–
CC(C)CNC(=O)c1ccc(NC(=O)c2cccs2)cc1,-47.3,"29.1 µM [falling, single point]","29.1 µM [falling, single point]"
CCOc1ccc(-n2c(-c3ccc(OC)cc3)c[n+]3c2CCCCC3)cc1,-40.9,"1.46 µM [falling, full curve]","3.26 µM [falling, partial curve]"
Cc1cc(Br)ccc1NC(=O)CN(C)C(=O)CSCc1ccccc1,–,"6.51 µM [falling, partial curve, poor fit]",–
CCc1nnc(NS(=O)(=O)c2ccc(NS(=O)(=O)c3ccccc3)cc2)s1,-4.83,–,–
Cc1ccc(S(=O)(=O)N2CCCCC2)cc1NC(=O)CCc1nc2ccccc2c(=O)[nH]1,–,"0.517 µM [rising, single point]","0.731 µM [rising, single point]"
Cc1ccccc1OCC(=O)N/N=C/c1ccc(N2CCOCC2)o1,17,"29.1 µM [falling, single point]",–
COc1cccc(/C=N\NC(=O)c2sc(N)nc2C)c1OC,–,"3.66 µM [rising, partial curve]","0.092 µM [rising, full curve]"
O=C(NNC(=O)c1ccc(Oc2ccc(C3SCCS3)cc2)o1)c1ccc(Cl)cc1,–,"0.731 µM [rising, single point]",–
O=C(CN1CCCCCC1)OCCN=C1NS(=O)(=O)c2ccccc21,-34.9,–,"23.1 µM [falling, single point]"
CCOc1ccc(N=C2SCC(=O)N2CC)cc1,26.3,"29.1 µM [rising, single point]","0.731 µM [rising, full curve, poor fit]"

# A section from the list above, as a working copy:
SMILES,cell number change [%],AC50 [1],AC50 [2]
O=C(NC1CCCC1)c1ccc(COc2ccccc2Br)o1,3.25,"6.51 µM [rising, single point]",–
CC(C)CNC(=O)c1ccc(NC(=O)c2cccs2)cc1,-47.3,"29.1 µM [falling, single point]","29.1 µM [falling, single point]"
CCOc1ccc(-n2c(-c3ccc(OC)cc3)c[n+]3c2CCCCC3)cc1,-40.9,"1.46 µM [falling, full curve]","3.26 µM [falling, partial curve]"
Cc1cc(Br)ccc1NC(=O)CN(C)C(=O)CSCc1ccccc1,–,"6.51 µM [falling, partial curve, poor fit]",–
CCc1nnc(NS(=O)(=O)c2ccc(NS(=O)(=O)c3ccccc3)cc2)s1,-4.83,–,–

# (listing goes on)

SMILES,cell number change [%],AC50 [1],AC50 [2]
CCN(CC)CCCN=Cc1c(O)n(-c2cccc(C)c2)c(=O)c2ccccc12,11.9,–,–
Cc1cc(NC(=O)c2cccc3ccccc23)cc(C)c1OCC(=O)N1CCOCC1,-3.99,"20.6 µM [rising, partial curve]",–
COC(=O)c1ccc(OCCCCN2CC(C)OC(C)C2)cc1 (stereo not drawn),15.7,–,–
Cc1ccc2c(c1)C1OCCC1C1N2C(=O)C2C(C(=O)O)C3C=CC21O3 (stereo not drawn),-6.03,"5.8 µM [falling, full curve]",–
NC(=O)c1cccnc1Nc1ccccc1F,-6.61,–,"0.13 µM [rising, full curve, poor fit]"
COc1ccc(OC(C)C(=O)N2CCC(C)CC2)cc1 (stereo not drawn),2.61,"6.51 µM [falling, single point]",–
O=C1C(c2ccccc2)=[N+]([O-])c2ccccc21,-85.2,"4.11 µM [falling, full curve]","9.2 µM [falling, partial curve]"
COc1cccc(C2=NOC(C(=O)NCc3ccc(F)cc3)C2)c1 (stereo not drawn),-91.6,"29.1 µM [falling, partial curve]","0.116 µM [falling, partial curve]"
O=C(CN1CCN(C(=O)c2c(F)cccc2F)CC1)Nc1ccccc1C(F)(F)F,-20.7,–,–
Cc1ccc(S(=O)(=O)NCc2ccc(N3CCN(C(=O)OC(C)(C)C)CC3)cc2)cc1,12.3,"35.5 µM [falling, single point]",–
CCn1c(COc2cccc(C)c2)nnc1SCC(=O)NC1CCCC1,10.5,"0.206 µM [rising, single point]",–
O=C1CC2CS(=O)(=O)CC2N1C1CCCCC1 (stereo not drawn),16.1,–,–
CCCCN1CC(=O)N2[C@H]3c4ccc(OC)cc4OC[C@@H]3[C@H](c3ccccc3)[C@]2(C)C1=O,3.04,"1.16 µM [falling, single point]",–
O=C(c1cc(-c2cccc(O)c2)on1)N1CCc2ccccc2C1,-12.4,"20.6 µM [falling, partial curve]",–
O=C(c1c(F)cccc1F)N1CCN(c2ncc(Br)cn2)CC1,8.97,–,–
Cc1ccc(-c2noc(-c3ccoc3C)n2)cc1,-16,"0.082 µM [falling, full curve, poor fit]","0.0731 µM [falling, full curve, poor fit]"
N#C/C(=C/c1ccccc1[N+](=O)[O-])C(=O)NCc1ccco1,–,"7.31 µM [falling, partial curve]",–
CCS(=O)(=O)N1CCC(C(=O)NC2CCCCCCC2)CC1,2.1,–,"0.58 µM [falling, single point]"
CC(C)Nc1nc(Cl)nc(Nc2ccccc2)n1,-13.7,–,–
O=C(Nc1cccc(C(=O)N2CCOCC2)c1)c1cncc(Br)c1,-36.1,"2.31 µM [falling, single point]","29.1 µM [falling, single point]"
Cn1c(NC(=O)c2ccccc2Br)cc(=O)n(C)c1=O,-7.45,–,"6.51 µM [falling, single point]"

SMILES,cell number change [%],AC50 [1],AC50 [2]
CC1CN(C(=O)/C(=C/c2ccco2)NC(=O)c2ccccc2)CC(C)O1 (stereo not drawn),-11.8,"7.08 µM [rising, partial curve, poor fit]",–
CCOc1ccc(S(=O)(=O)NCc2ccncc2)cc1,-34.4,–,"1.84 µM [falling, partial curve]"
Cc1csc(NC(=O)C2C3C=CC(O3)C2C(=O)O)n1 (stereo not drawn),-17.9,"0.366 µM [falling, full curve, poor fit]",–
CC(=O)Nc1cccc(NC(=O)c2ccco2)c1,8.83,–,–
O=C(NCc1ccccc1F)C1CCCN(c2cnccn2)C1 (stereo not drawn),12.5,"16.4 µM [rising, partial curve]",–
COc1cccc(NC(=O)CN(c2ccc([N+](=O)[O-])cc2)S(=O)(=O)c2ccccc2)c1,8.07,"18.4 µM [rising, single point]",–
CCOC(=O)c1c(C)[nH]c(C(=O)Cn2nnc(-c3ccccc3)n2)c1C,-33.7,–,"29.1 µM [falling, single point]"
NC(=O)COC(=O)C1CSC2(c3ccc(F)cc3)CCC(=O)N12 (stereo not drawn),-2.17,–,–
CC(C)(C)C(=O)NNC(=O)c1cc(C(C)(C)C)nn1Cc1ccccc1,-28.7,"29.1 µM [falling, single point]","3.66 µM [falling, full curve, poor fit]"
Cc1ccccc1-c1ccc(C(=O)NCc2ccccc2)o1,2.49,"8.2 µM [rising, partial curve]",–
Cc1ccc(Nc2nc(Oc3ccc(OCc4ccccc4)nn3)nc(N3CCOCC3)n2)cc1,10.9,"4.61 µM [rising, full curve]",–
COCC(C)n1c(C)cc(C(=O)COC(=O)CCc2nc3ccccc3c(=O)[nH]2)c1C (stereo not drawn),64.5,–,"1.3 µM [rising, full curve, poor fit]"
Cc1cc(C)nc(NC(=NCCc2c[nH]c3ccccc23)NC(=O)c2ccco2)n1,-29,"0.164 µM [rising, full curve]","0.0731 µM [rising, single point]"
Cc1ccc(NC(=O)COC(=O)CCn2c(C)csc2=O)c([N+](=O)[O-])c1,3.61,–,–
CCc1ccc(-c2nnn(Cc3nn[nH]n3)n2)cc1,-5.28,"7.31 µM [falling, single point]",–
CC(C(=O)N1CCc2ccccc21)n1cccc1 (stereo not drawn),6.92,"20.6 µM [falling, partial curve]",–
CCC(COC)Oc1cc(NCc2ccccc2)c2ncn(C(C)C)c2c1 (stereo not drawn),-74.2,–,"4.61 µM [falling, single point]"
N#Cc1cccc(C(=O)OCc2cccc(S(=O)(=O)N3CCOCC3)c2)c1,-20.1,–,–
O=C(c1ccc(Br)o1)N1CCN(Cc2ccccc2Cl)CC1,-19.1,"0.411 µM [falling, full curve, poor fit]",–
